Here are results for three substances from paper doi:10.1101/2025.05.30.655367.

By UniProt entry, the sequences of proteins in these tests, tags left out.
UniProt P20801: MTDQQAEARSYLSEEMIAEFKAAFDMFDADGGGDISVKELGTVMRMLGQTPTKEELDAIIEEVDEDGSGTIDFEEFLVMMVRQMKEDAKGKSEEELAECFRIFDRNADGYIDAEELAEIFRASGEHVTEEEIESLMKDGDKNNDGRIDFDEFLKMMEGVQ
UniProt P13412: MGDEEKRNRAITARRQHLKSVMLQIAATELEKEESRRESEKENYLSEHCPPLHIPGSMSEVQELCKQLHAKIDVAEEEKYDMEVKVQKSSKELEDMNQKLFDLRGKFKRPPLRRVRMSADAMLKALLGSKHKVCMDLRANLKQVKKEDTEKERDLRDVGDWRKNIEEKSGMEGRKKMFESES
UniProt Q9QZ47: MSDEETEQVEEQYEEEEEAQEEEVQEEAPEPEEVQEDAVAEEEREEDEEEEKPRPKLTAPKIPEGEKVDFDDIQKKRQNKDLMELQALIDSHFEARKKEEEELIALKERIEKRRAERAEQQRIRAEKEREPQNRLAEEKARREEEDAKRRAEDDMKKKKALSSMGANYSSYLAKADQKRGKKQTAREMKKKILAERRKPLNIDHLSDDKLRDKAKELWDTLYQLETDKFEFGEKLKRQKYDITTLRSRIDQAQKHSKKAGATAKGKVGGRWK

Results are given in words; binding and its absence hold for the method and conditions named. In cells and extracts the contact can be indirect. Some entries that bind do so weakly or less than the wild type. Where a sequence is shown, tags or fusion partners need not be part of it.

The target in this assay is T1, KLHL41-FLAG (UniProt O60662).
T1 sequence: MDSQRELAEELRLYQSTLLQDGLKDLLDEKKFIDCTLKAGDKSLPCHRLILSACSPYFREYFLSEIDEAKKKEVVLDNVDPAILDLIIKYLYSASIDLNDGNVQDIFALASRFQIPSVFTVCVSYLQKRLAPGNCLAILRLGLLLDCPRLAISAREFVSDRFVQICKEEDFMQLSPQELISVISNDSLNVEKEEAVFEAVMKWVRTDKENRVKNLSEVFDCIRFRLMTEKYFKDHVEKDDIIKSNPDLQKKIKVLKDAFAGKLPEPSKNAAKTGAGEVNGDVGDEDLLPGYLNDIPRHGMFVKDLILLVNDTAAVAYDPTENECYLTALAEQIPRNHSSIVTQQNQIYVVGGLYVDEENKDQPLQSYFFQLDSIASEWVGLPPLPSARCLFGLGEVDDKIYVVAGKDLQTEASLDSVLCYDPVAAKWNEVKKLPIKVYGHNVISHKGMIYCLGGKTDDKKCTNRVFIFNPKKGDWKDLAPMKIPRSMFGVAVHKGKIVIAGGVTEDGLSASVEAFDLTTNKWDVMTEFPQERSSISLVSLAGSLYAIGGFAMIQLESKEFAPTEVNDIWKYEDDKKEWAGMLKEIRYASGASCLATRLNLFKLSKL
Kind of assay: co-IP.
Turning to TNNC2 (from UniProt P20801 1-160), the binding result is “no binding”. Then TNNI2 (from UniProt P13412 1-182), with “no binding”; and TNNT3 (from UniProt Q9QZ47 1-272), with “binds”.
